Results taken from US9242941B2, “Alkyl, fluoroalkyl-1,4-benzodiazepinone compounds” (BRISTOL-MYERS SQUIBB COMPANY, priority 2012, dated 2016).
Some results were stated once for a whole list of compounds, not compound by compound.

Tests used:
human Notch 1 = test: Notch-CBF1 Transactivation Assay (Notch 1); type: cell-based; settings: read-out: Notch 1 IC50, luciferase, transfected HeLa cells
From the text: (§1) Notch-CBF1 Transactivation Assay
(§2) The Notch-CBF1 (C-promoter binding factor I) cell based transactivation assay is based on the ability of the released Notch intracellular domain fragments (NICDs) to function as transcription factors in conjunction with CBF1 and other nuclear factors. Luciferase assays were used to measure the antagonism of Notch-CBF1 transcriptional activity. HeLa cervical cancer cells are transiently co-transfected with pCDNA3.1/Hygro plasmids containing truncated Notch 1, Notch 2, Notch 3, or Notch 4 receptors and a PGL3 luciferase reporter vector containing 4 copies of CBF1 binding site. The cells were then tested for Notch-CBF1 activity in the absence or presence of test compounds. HeLa cells, maintained in DMEM (high glucose with HEPES), 1× glutamine/penicillin/streptomycin and 10% Fetal Bovine serum, were transiently transfected in a T175 Flask (4.5×10^6 cells/flask) using the Monster Transfection Kit (Minis #MIR2906) according to manufacturers specifications. Table 13 denotes respective DNA quantity for the transfections.
(§3) Assay media (5 μL) containing test compounds in final concentrations ranging from 5 μM to 8.4×10^−5 μM (3 fold serial dilutions) were added to the cells and the cell plates were then incubated for 18 hours at 37° C. and 5% CO2. Control wells contained DMSO vehicle (total counts) or 0.5 μM of an in-house small molecule inhibitor (background counts). Duplicates were used for each sample. Luciferase activity was measured after a 20-minute incubation with 50 μl STEADY-GLO® luciferase reagents according to manufacturer's specifications (Promega, Cat. #E2550) and analyzed by Envision plate reader (PerkinElmer, Boston, Mass.).
(§4) The antagonist effect of compounds was expressed as 100×[1−(average sample−average background)/(average total−average background)] where sample is the luciferase activity in the presence of test compound, background is equal to the luciferase activity in the presence of the small molecule inhibitor control and the total is signal induced in DMSO wells.

human Notch 3 = test: Notch-CBF1 Transactivation Assay (Notch 3); type: cell-based; settings: read-out: Notch 3 IC50, luciferase, transfected HeLa cells
From the text: as §1, §2, §3, §4

In the case of `CCC[C@H](C(N)=O)[C@@H](CCC(F)(F)F)C(=O)N[C@H]1N=C(c2ccc(Cl)cc2)c2cccc(OC)c2NC1=O` [Example 25, (2R,3S)—N-((3S)-5-(4-Chlorophenyl)-9-methoxy-2-oxo-2,3-dihydro-1H-1,4-benzodiazepin-3-yl)-3-propyl-2-(3,3,3-trifluoropropyl)succinamide], the IC50 (human Notch 1) is reported as ≤ 16.1 nM and the IC50 (human Notch 3) is reported as ≤ 28.3 nM.

With `NC(=O)[C@@H](CC1CC1)[C@@H](CCC(F)(F)F)C(=O)N[C@H]1N=C(c2cccc(F)c2)c2cccc(OC3CC3)c2NC1=O` [Example 5, (2R,3S)-3-(Cyclopropylmethyl)-N-((3S)-9-(cyclopropyloxy)-5-(3-fluorophenyl)-2-oxo-2,3-dihydro-1H-1,4-benzodiazepin-3-yl)-2-(3,3,3-trifluoropropyl)succinamide] the IC50 (human Notch 1) was ≤ 16.1 nM and the IC50 (human Notch 3) was ≤ 28.3 nM.

For `Cc1cccc(C2=N[C@H](NC(=O)[C@H](CCC(F)(F)F)[C@H](CC3CC3)C(N)=O)C(=O)Nc3c(Cl)cccc32)c1` [Example 30, (2R,3S)—N-((3S)-9-Chloro-5-(3-methylphenyl)-2-oxo-2,3-dihydro-1H-1,4-benzodiazepin-3-yl)-3-(cyclopropylmethyl)-2-(3,3,3-trifluoropropyl)succinamide], the IC50 (human Notch 1) was ≤ 16.1 nM and the IC50 (human Notch 3) was ≤ 28.3 nM.

With `CN1C(=O)[C@@H](NC(=O)[C@H](CCC(F)(F)F)[C@H](CC2CC2)C(N)=O)N=C(c2ccccc2)c2cccc(F)c21` [Example 20, (2R,3S)-3-(Cyclopropylmethyl)-N-((3S)-9-fluoro-1-methyl-2-oxo-5-phenyl-2,3-dihydro-1H-1,4-benzodiazepin-3-yl)-2-(3,3,3-trifluoropropyl)succinamide] the IC50 (human Notch 1) was ≤ 16.1 nM and the IC50 (human Notch 3) was ≤ 28.3 nM.

In the case of `CCC[C@H](C(N)=O)[C@@H](CCC(F)(F)F)C(=O)N[C@H]1N=C(c2ccccc2)c2cccc(F)c2NC1=O` [Example 37, (2R,3S)—N-((3S)-9-Fluoro-2-oxo-5-phenyl-2,3-dihydro-1H-1,4-benzodiazepin-3-yl)-3-propyl-2-(3,3,3-trifluoropropyl)succinamide], the IC50 (human Notch 1) is reported as ≤ 16.1 nM and the IC50 (human Notch 3) is reported as ≤ 28.3 nM.

With `Cc1ccc2c(c1F)NC(=O)[C@@H](NC(=O)[C@H](CCC(F)(F)F)[C@H](CC1CC1)C(N)=O)N=C2c1ccccc1` [Example 18, (2R,3S)-3-(Cyclopropylmethyl)-N-((3S)-9-fluoro-8-methyl-2-oxo-5-phenyl-2,3-dihydro-1H-1,4-benzodiazepin-3-yl)-2-(3,3,3-trifluoropropyl)succinamide] the IC50 (human Notch 1) was ≤ 16.1 nM and the IC50 (human Notch 3) was ≤ 28.3 nM.

For `Cc1ccc(C2=N[C@H](NC(=O)[C@H](CCC(F)(F)F)[C@H](CC3CC3)C(N)=O)C(=O)Nc3c(F)cccc32)cc1` [Example 16, (2R,3S)-3-(Cyclopropylmethyl)-N-((3S)-9-fluoro-5-(4-methylphenyl)-2-oxo-2,3-dihydro-1H-1,4-benzodiazepin-3-yl)-2-(3,3,3-trifluoropropyl)succinamide], the IC50 (human Notch 1) was ≤ 16.1 nM and the IC50 (human Notch 3) was ≤ 28.3 nM.

For `CCC[C@H](C(N)=O)[C@@H](CCC(F)(F)F)C(=O)N[C@H]1N=C(c2ccccc2)c2cccc(C)c2NC1=O` [Example 15, (2R,3S)—N-((3S)-9-Methyl-2-oxo-5-phenyl-2,3-dihydro-1H-1,4-benzodiazepin-3-yl)-3-propyl-2-(3,3,3-trifluoropropyl)succinamide], the IC50 (human Notch 1) was ≤ 16.1 nM and the IC50 (human Notch 3) was ≤ 28.3 nM.

`COc1cccc2c1NC(=O)[C@@H](NC(=O)[C@H](CCC(F)(F)F)[C@H](CC1CC1)C(N)=O)N=C2c1cccc(C(F)(F)F)c1` [Example 2, (2R,3S)-3-(Cyclopropylmethyl)-N-((3S)-9-methoxy-2-oxo-5-(3-(trifluoromethyl)phenyl)-2,3-dihydro-1H-1,4-benzodiazepin-3-yl)-2-(3,3,3-trifluoropropyl)succinamide] was tested, and the IC50 (human Notch 1) was ≤ 16.1 nM and the IC50 (human Notch 3) was ≤ 28.3 nM.

In the case of `Cc1ccccc1C1=N[C@H](NC(=O)[C@H](CCC(F)(F)F)[C@H](CC2CC2)C(N)=O)C(=O)Nc2c(Cl)cccc21` [Example 13, (2R,3S)—N-((3S)-9-Chloro-5-(2-methylphenyl)-2-oxo-2,3-dihydro-1H-1,4-benzodiazepin-3-yl)-3-(cyclopropylmethyl)-2-(3,3,3-trifluoropropyl)succinamide], the IC50 (human Notch 1) is reported as ≤ 16.1 nM and the IC50 (human Notch 3) is reported as ≤ 28.3 nM.

In the case of `NC(=O)[C@@H](CC1CC1)[C@@H](CCC(F)(F)F)C(=O)N[C@H]1N=C(c2ccc(Cl)cc2)c2cccc(C3CC3)c2NC1=O` [Example 7, (2R,3S)—N-((3S)-5-(4-Chlorophenyl)-9-cyclopropyl-2-oxo-2,3-dihydro-1H-1,4-benzodiazepin-3-yl)-3-(cyclopropylmethyl)-2-(3,3,3-trifluoropropyl)succinamide], the IC50 (human Notch 1) is reported as ≤ 16.1 nM and the IC50 (human Notch 3) is reported as ≤ 28.3 nM.

In the case of `Cc1cccc(C2=N[C@H](NC(=O)[C@H](CCC(F)(F)F)[C@H](CC3CC3)C(N)=O)C(=O)Nc3c(F)cccc32)c1` [Example 19, (2R,3S)-3-(Cyclopropylmethyl)-N-((3S)-9-fluoro-5-(3-methylphenyl)-2-oxo-2,3-dihydro-1H-1,4-benzodiazepin-3-yl)-2-(3,3,3-trifluoropropyl)succinamide], the IC50 (human Notch 1) is reported as ≤ 16.1 nM and the IC50 (human Notch 3) is reported as ≤ 28.3 nM.

For `COc1ccc2c(c1F)NC(=O)[C@@H](NC(=O)[C@H](CCC(F)(F)F)[C@H](CC1CC1)C(N)=O)N=C2c1ccccc1` [Example 29, (2R,3S)-3-(Cyclopropylmethyl)-N-((3S)-9-fluoro-8-methoxy-2-oxo-5-phenyl-2,3-dihydro-1H-1,4-benzodiazepin-3-yl)-2-(3,3,3-trifluoropropyl)succinamide], the IC50 (human Notch 1) was ≤ 16.1 nM and the IC50 (human Notch 3) was ≤ 28.3 nM.

With `NC(=O)[C@@H](CC1CC1)[C@@H](CCC(F)(F)F)C(=O)N[C@H]1N=C(c2ccccc2)c2ccc(Cl)c(Cl)c2NC1=O` [Example 34, (2R,3S)-3-(Cyclopropylmethyl)-N-((3S)-8,9-dichloro-2-oxo-5-phenyl-2,3-dihydro-1H-1,4-benzodiazepin-3-yl)-2-(3,3,3-trifluoropropyl)succinamide] the IC50 (human Notch 1) was ≤ 16.1 nM and the IC50 (human Notch 3) was ≤ 28.3 nM.

`CCC[C@H](C(N)=O)[C@@H](CCC(F)(F)F)C(=O)N[C@H]1N=C(c2ccccc2)c2cccc(Cl)c2NC1=O` [Example 43, (2R,3S)—N-((3S)-9-Chloro-2-oxo-5-phenyl-2,3-dihydro-1H-1,4-benzodiazepin-3-yl)-3-propyl-2-(3,3,3-trifluoropropyl)succinamide] was tested, and the IC50 (human Notch 1) was ≤ 16.1 nM and the IC50 (human Notch 3) was ≤ 28.3 nM.

For `COc1cccc2c1NC(=O)[C@@H](NC(=O)[C@H](CCC(F)(F)F)[C@H](CC1CC1)C(N)=O)N=C2c1ccc(Cl)cc1` [Example 21, (2R,3S)—N-((3S)-5-(4-Chlorophenyl)-9-methoxy-2-oxo-2,3-dihydro-1H-1,4-benzodiazepin-3-yl)-3-(cyclopropylmethyl)-2-(3,3,3-trifluoropropyl)succinamide], the IC50 (human Notch 1) was ≤ 16.1 nM and the IC50 (human Notch 3) was ≤ 28.3 nM.

`CCC[C@H](C(N)=O)[C@@H](CCC(F)(F)F)C(=O)N[C@H]1N=C(c2ccccc2)c2cccc(OC)c2NC1=O` [Example 40, (2R,3S)—N-((3S)-9-Methoxy-2-oxo-5-phenyl-2,3-dihydro-1H-1,4-benzodiazepin-3-yl)-3-propyl-2-(3,3,3-trifluoropropyl)succinamide] was tested, and the IC50 (human Notch 1) was ≤ 16.1 nM and the IC50 (human Notch 3) was ≤ 28.3 nM.

In the case of `Cc1cccc2c1NC(=O)[C@@H](NC(=O)[C@H](CCC(F)(F)F)[C@H](CC1CC1)C(N)=O)N=C2c1cccc(F)c1` [Example 10, (2R,3S)-3-(Cyclopropylmethyl)-N-((3S)-5-(3-fluorophenyl)-9-methyl-2-oxo-2,3-dihydro-1H-1,4-benzodiazepin-3-yl)-2-(3,3,3-trifluoropropyl)succinamide], the IC50 (human Notch 1) is reported as ≤ 16.1 nM and the IC50 (human Notch 3) is reported as ≤ 28.3 nM.

In the case of `NC(=O)[C@@H](CC1CC1)[C@@H](CCC(F)(F)F)C(=O)N[C@H]1N=C(c2cccc(F)c2)c2cccc(F)c2NC1=O` [Example 23, (2R,3S)-3-(Cyclopropylmethyl)-N-((3S)-9-fluoro-5-(3-fluorophenyl)-2-oxo-2,3-dihydro-1H-1,4-benzodiazepin-3-yl)-2-(3,3,3-trifluoropropyl)succinamide], the IC50 (human Notch 1) is reported as ≤ 16.1 nM and the IC50 (human Notch 3) is reported as ≤ 28.3 nM.

For `Cc1cc(F)c2c(c1)C(c1ccccc1)=N[C@H](NC(=O)[C@H](CCC(F)(F)F)[C@H](CC1CC1)C(N)=O)C(=O)N2` [Example 17, (2R,3S)-3-(Cyclopropylmethyl)-N-((3S)-9-fluoro-7-methyl-2-oxo-5-phenyl-2,3-dihydro-1H-1,4-benzodiazepin-3-yl)-2-(3,3,3-trifluoropropyl)succinamide], the IC50 (human Notch 1) was ≤ 16.1 nM and the IC50 (human Notch 3) was ≤ 28.3 nM.

For `CCC[C@H](C(N)=O)[C@@H](CCC(F)(F)F)C(=O)N[C@H]1N=C(c2ccccc2)c2ccc(Br)c(OC)c2NC1=O` [Example 39, (2R,3S)—N-((3S)-8-Bromo-9-methoxy-2-oxo-5-phenyl-2,3-dihydro-1H-1,4-benzodiazepin-3-yl)-3-propyl-2-(3,3,3-trifluoropropyl)succinamide], the IC50 (human Notch 1) was ≤ 16.1 nM and the IC50 (human Notch 3) was ≤ 28.3 nM.
